US20240343815A1
Results are given in words; binding and its absence hold for the method and conditions named. Some entries that bind do so weakly or less than the wild type.

B1: huC2C1A1A1-V15 (antibody, human IgG4 S228P, kappa, V domains shown)
VH: EVQLVESGGGLVQPGGSLRLSCAASGFTFSTYGMSWVRQAPGKGLVWVATINSNGGSTSYPDSVKGRFTISRDNAKNTLYLQMNSLRAEDTAVYYCARFFRFRNAMDYWGQGTLVTVSS
VL: DIQMTQSPSSLSASVGDRVTITCRTSENIYSYLAWYQQKPGKAPKFLVYNAKTLAEGVPSRFSGSGSGTDFTLTISSLQPEDFATYYCQHYYGPPTWTFGQGTKVEIKR
B2: huC2C1A1A1-V14 (antibody, human IgG4 S228P, kappa, V domains shown)
VH: B1 VH
VL: DIQMTQSPSSLSASVGQRVTITCRTSENIYSYLAWYQQKQGKPPRFLIYNAKTLAEGVPSRFSGSGSGTEFTLTITSLQAEDFGVYYCQHYYGPPTWTFGPGTKLEIKR
B3: Chimeric C2C1A1A1 (antibody, human IgG4 S228P, kappa, V domains shown)
VH: EVQLVESGGGLVQPGGSLKLSCAASGFTFSTYGMSWVRQTPDKRLELVATINSNGGSTSYPDSVKGRFTISRDNAKNTLYLQMSSLKSEDTAMFYCARFFRFRNAMDYWGQGTSVTVSS
VL: DIQMTQSPASLSASVGETVTITCRTSENIYSYLAWYQQKQGKSPQFLVYNAKTLAEGVPSRFSGSGSGTQFSLNINSLQSEDFGSYYCQHYYGPPTWTFGGGTKLEIKR

What follows are binders tested against cynomolgus monkey IL4Rα-his protein (cynomolgus monkey) (assay: SPR Biacore, mAb captured, cynomolgus IL4Rα-his analyte).

binding, binds:
B1, B2, B3
